PubChem BioAssay AID652259 – Drosophila RNAi Screening Center – 2013

Purpose: 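Genome-wide hunt for genes that control Wingless pathway activity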 (primary screen)
System: Drosophila clone 8 imaginal disc epithelial cells
Reagent: long dsRNA against Drosophila genes
Challenge: pathway stimulated by co-transfected Wingless expression plasmid
Read-out: 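Firefly luciferase from a tcf-site Wingless reporter, measured alongside co-transfected Renilla luciferase that tracks transfection; pathway stimulated by a Wingless plasmid; the firefly-to-Renilla ratio is not deposited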
Scale: firefly reporter light: higher = more Wg reporter light, before normalisation; Renilla control light: higher = more transfected or surviving cells
Active means: 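a knock-down is a candidate when at least two out of four statistical tests show it departing from its plate mean; one test alone signals a weak candidate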
Calls: active = candidate regulator (raises or lowers reporter); inactive = not a candidate
In all, the deposit lists about 22,000 reagents; shown is a random part of those with a known target gene and a result. Over the whole deposit, 233 (1.1%) got an active call. 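Light values are raw, unnormalised plate reads; the ratio scores behind the reporter calls were not deposited.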 The numbers tell different reagents against one gene apart. Names joined by + are all predicted targets of the reagent. Not stated in the record: the amount of reagent, the time to read-out, the dose of the treatment.

With Acp98AB, what was measured?
firefly reporter light, replicate 1: 3.73e5; firefly reporter light, replicate 2: 4.50e5; Renilla control light, replicate 1: 2.15e5; Renilla control light, replicate 2: 2.56e5; outcome: inactive

For CG12446, what does the deposit list?
firefly reporter light, replicate 1: 17349; Renilla control light, replicate 1: 8809; outcome: inactive

What is on record for cola + swif #1?
firefly reporter light, replicate 1: 5083; firefly reporter light, replicate 2: 8061; Renilla control light, replicate 1: 853; Renilla control light, replicate 2: 2968; outcome: inactive

For cola + swif #2, what does the deposit list?
firefly reporter light, replicate 1: 4.76e5; firefly reporter light, replicate 2: 4.55e5; Renilla control light, replicate 1: 1.90e5; Renilla control light, replicate 2: 1.85e5; outcome: inactive

For Galphaf, what does the deposit list?
firefly reporter light, replicate 1: 5338; Renilla control light, replicate 1: 2549; outcome: inactive

Which result is listed for Ilp3?
firefly reporter light, replicate 1: 9136; Renilla control light, replicate 1: 3651; outcome: inactive

What is on record for CG18178?
firefly reporter light, replicate 1: 2432; Renilla control light, replicate 1: 852; outcome: inactive

What did the screen give for CG6055?
firefly reporter light, replicate 1: 2679; firefly reporter light, replicate 2: 8448; Renilla control light, replicate 1: 864; Renilla control light, replicate 2: 3027; outcome: inactive

With CG43109, what was measured?
firefly reporter light, replicate 1: 16439; Renilla control light, replicate 1: 9867; outcome: inactive

What did the screen give for CG33500?
firefly reporter light, replicate 1: 3457; Renilla control light, replicate 1: 2106; outcome: inactive

For Rpp25, how do the results read?
firefly reporter light, replicate 1: 2676; firefly reporter light, replicate 2: 8149; Renilla control light, replicate 1: 681; Renilla control light, replicate 2: 3236; outcome: inactive

How did the screen score Cyp6d2?
firefly reporter light, replicate 1: 2820; firefly reporter light, replicate 2: 9664; Renilla control light, replicate 1: 813; Renilla control light, replicate 2: 4049; outcome: inactive

With Ir51a, how do the results read?
firefly reporter light, replicate 1: 6101; Renilla control light, replicate 1: 2954; outcome: inactive

With CG4424, what does the deposit list?
firefly reporter light, replicate 1: 1815; firefly reporter light, replicate 2: 5681; Renilla control light, replicate 1: 947; Renilla control light, replicate 2: 1732; outcome: inactive

Which result is listed for goe?
firefly reporter light, replicate 1: 17369; Renilla control light, replicate 1: 7610; outcome: inactive

What is on record for ms(2)35Ci?
firefly reporter light, replicate 1: 26617; Renilla control light, replicate 1: 14649; outcome: inactive

What did the screen give for CR43999 (retired record)?
firefly reporter light, replicate 1: 20915; Renilla control light, replicate 1: 18299; outcome: inactive

With Tet #1, how do the results read?
firefly reporter light, replicate 1: 5312; Renilla control light, replicate 1: 1200; outcome: inactive

Which result is listed for Tet #2?
firefly reporter light, replicate 1: 19760; Renilla control light, replicate 1: 4706; outcome: inactive

What is on record for Tet #3?
firefly reporter light, replicate 1: 5273; Renilla control light, replicate 1: 1953; outcome: inactive

What did the screen give for CG13113?
firefly reporter light, replicate 1: 2739; firefly reporter light, replicate 2: 7656; Renilla control light, replicate 1: 1328; Renilla control light, replicate 2: 3609; outcome: inactive

With CG43342, what does the deposit list?
firefly reporter light, replicate 1: 2928; Renilla control light, replicate 1: 1351; outcome: inactive

For E2f1, what does the deposit list?
reporter change call, replicate 1: Wg reporter activity lowered; firefly reporter light, replicate 1: 38960; Renilla control light, replicate 1: 9274; outcome: inactive

For CG5535, how do the results read?
firefly reporter light, replicate 1: 3155; Renilla control light, replicate 1: 1029; outcome: inactive

For GluRIIE, what does the deposit list?
firefly reporter light, replicate 1: 2215; Renilla control light, replicate 1: 1059; outcome: inactive

How did the screen score CG9281?
firefly reporter light, replicate 1: 1537; firefly reporter light, replicate 2: 6172; Renilla control light, replicate 1: 1117; Renilla control light, replicate 2: 2658; outcome: inactive

With Arc42 #1, how do the results read?
firefly reporter light, replicate 1: 18149; Renilla control light, replicate 1: 3549; outcome: inactive

What did the screen give for Arc42 #2?
firefly reporter light, replicate 1: 25140; Renilla control light, replicate 1: 5121; outcome: inactive

With mon2, what was measured?
firefly reporter light, replicate 1: 2741; firefly reporter light, replicate 2: 6627; Renilla control light, replicate 1: 1085; Renilla control light, replicate 2: 3195; outcome: inactive

Which result is listed for CG31821?
firefly reporter light, replicate 1: 4.58e5; firefly reporter light, replicate 2: 5.17e5; Renilla control light, replicate 1: 1.77e5; Renilla control light, replicate 2: 2.08e5; outcome: inactive

For CG9903, how do the results read?
firefly reporter light, replicate 1: 16978; Renilla control light, replicate 1: 9153; outcome: inactive

What did the screen give for CROT #1?
firefly reporter light, replicate 1: 2278; firefly reporter light, replicate 2: 2338; Renilla control light, replicate 1: 1062; Renilla control light, replicate 2: 1040; outcome: inactive

What is on record for CROT #2?
firefly reporter light, replicate 1: 6901; Renilla control light, replicate 1: 2375; outcome: inactive
